{"sequences": {"note": "Amino acid sequences for entries named in this document (tags omitted).", "UniProt P20292, whole entry": "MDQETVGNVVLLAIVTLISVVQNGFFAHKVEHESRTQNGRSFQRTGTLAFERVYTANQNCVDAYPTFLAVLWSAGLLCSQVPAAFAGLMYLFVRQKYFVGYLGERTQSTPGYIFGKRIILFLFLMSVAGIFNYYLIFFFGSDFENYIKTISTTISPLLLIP"}, "source": "patent US8580825B2", "about": "“Oxadiazole inhibitors of leukotriene production” (Boehringer Ingelheim International GmbH, priority 2010, dated 2013)", "key": {"[1]": {"system": "synthesis of LTB4 in human whole blood", "assay": "human whole blood LTB4 production inhibition assay", "conditions": "read-out: hWB LTB4 IC50, calcimycin stimulated"}, "[2]": {"target": "recombinant human FLAP protein (Homo sapiens, UniProt P20292)", "assay": "FLAP binding assay (Scintillation Proximity Assay, displacement of [125I]L-691,831)", "conditions": "read-out: FLAP SPA IC50"}}, "note": "pIC50: −log10 of the molar value. The structures given here were assigned with low confidence; some may be wrong.", "data": [{"molecule": "CC(C)C(C)(c1ccc(-c2cnc(N)nc2)nc1)c1noc(-c2cn(CC(=O)N(C)C)cn2)n1", "note": "(stereo not drawn)", "values": [{"measurement": "pIC50", "setting": "[1]", "result": "< 5.30"}, {"measurement": "pIC50", "setting": "[2]", "result": 6.15}]}, {"molecule": "CC(C)[C@](C)(c1ccc(-c2cnc(N)nc2)nc1)c1noc(-c2cnn(CCN3CCCC3)c2)n1", "values": [{"measurement": "pIC50", "setting": "[1]", "result": 7.52}, {"measurement": "pIC50", "setting": "[2]", "result": 7.89}]}, {"molecule": "C[C@@](c1ccc(-c2cnc(N)nc2)nc1)(c1noc(-c2cnn(CC#N)c2)n1)C1CC1", "values": [{"measurement": "pIC50", "setting": "[1]", "result": 7.49}, {"measurement": "pIC50", "setting": "[2]", "result": 8.20}]}]}
